Source: patent US11993582B2, “Crystalline forms of a LTA4H inhibitor” (Novartis AG, priority 2018, dated 2024)

Assay: Corrosion of steel coupons by the salt

With Cl.N[C@@H](CC(=O)O)Cn1nnc(-c2ccc(Oc3ncc(Cl)cc3F)cc2)n1 [HCl salt, (S)-3-amino-4-(5-(4-((5-chloro-3-fluoropyridin-2-yl)oxy)phenyl)-2H-tetrazol-2-yl)butanoic acid hydrochloride salt] the Corrosion (steel coupon #1.2767) was “strong corrosion” and the Corrosion (steel coupon #1.2803) was “moderate corrosion”.
